According to patent US6482975B1, “Bis-poly(ethylene oxide) surfactants and their use as antistats in photographic materials” (Eastman Kodak Company, priority 1998, dated 2002):

Experiments:
[1] = Impact electrostatic charging of gelatin-based coatings against stainless steel; settings: 50% RH
[2] = Surface Electrical Resistivity (SER) of gelatin-based coatings containing surfactant
[3] = against stainless steel, presence of CF3SO3Li (½ wt of surfactant), surfactant 0.15 wt %
[4] = against stainless steel, presence of CF3SO3Li (½ wt of surfactant), surfactant 0.3 wt %
[5] = against stainless steel, presence of CF3SO3Li (½ wt of surfactant), surfactant 0.6 wt %
[6] = 50% RH, absence of CF3SO3Li, surfactant 0.15 wt %
[7] = 50% RH, absence of CF3SO3Li, surfactant 0.3 wt %
[8] = 50% RH, absence of CF3SO3Li, surfactant 0.6 wt %
[9] = 50% RH, presence of CF3SO3Li (½ wt of surfactant), surfactant 0.15 wt %
[10] = 50% RH, presence of CF3SO3Li (½ wt of surfactant), surfactant 0.3 wt %
[11] = 50% RH, presence of CF3SO3Li (½ wt of surfactant), surfactant 0.6 wt %

Substance	Impact Charging ([1]; absence of CF3SO3Li)	Impact Charging [1, 3]	Impact Charging [1, 4]	Impact Charging [1, 5]	Log SER (Ω per Square) ([2]; 20% RH, presence of CF3SO3Li (½ wt of surfactant), surfactant 0.15 wt %)	Log SER (Ω per Square) ([2]; 20% RH, presence of CF3SO3Li (½ wt of surfactant), surfactant 0.3 wt %)	Log SER (Ω per Square) ([2]; 20% RH, presence of CF3SO3Li (½ wt of surfactant), surfactant 0.6 wt %)	Log SER (Ω per Square) [2, 6]	Log SER (Ω per Square) [2, 7]	Log SER (Ω per Square) [2, 8]	Log SER (Ω per Square) [2, 9]	Log SER (Ω per Square) [2, 10]	Log SER (Ω per Square) [2, 11]
CxF2x+1(CH2)y—(CH2CH2O) z—OH [Zonyl FSN]	charges strongly negatively	−16 μCm^−2	+2 μCm^−2	+4 μCm^−2	11.9 Ω per Square	10.7 Ω per Square	10.1 Ω per Square	11.5 Ω per Square	11.4 Ω per Square	11.1 Ω per Square	11.1 Ω per Square	10.3 Ω per Square	9.6 Ω per Square
Fluoroalkylthiosuccinic acid, Polyethylene glycol diester (II, R=C6F13CH2CH2,p=7)	–	+2 μCm^−2	0 μCm^−2	−2 μCm^−2	–	–	–	10.9 Ω per Square	10.8 Ω per Square	10.6 Ω per Square	11.0 Ω per Square	10.2 Ω per Square	9.6 Ω per Square
